Experimental data reported in PubChem BioAssay AID540276 (National Center for Advancing Translational Sciences (NCATS), 2011).
The whole screen tested about 300,000 compounds, of which about 5,400 (1.8%) were called active. The inconclusive results got no clear call from the source; some entries with a clear call stand among them for comparison. Calls come from the whole dose curve; tested in HEK293 cells. Where the call is inconclusive, the potency comes from a doubtful curve fit.

Assay: qHTS for inhibitors of binding or entry into cells for Marburg Virus
Conditions: Marburg virus pseudotyped entry inhibition, cell reporter; activity change, negative = inhibition: at 37.8 µM (top of the series) unless noted
% is set by controls: 0 for no effect and ±100 for the full control effect; potency is the fitted concentration of half-maximal effect.

For `COc1ccc(NC(=O)CCOc2cc(C)ccc2C)cc1S(=O)(=O)N1CCCCC1`, which Potency is on record?
Its Potency is inconclusive: 17.8 µM [inhibitor, single point].

For `Nn1cnnc1N/N=C\c1ccc(-c2ccccc2[N+](=O)[O-])o1`, which Potency is on record?
Its Potency is inconclusive: 16.4 µM [inhibitor, single point].

Which “activity change, negative = inhibition” value does the source give for `CCc1ccc2[nH]c(=O)c(CN(CCN(C)C)C(=O)Nc3ccccc3OC)cc2c1` here?
The value was inactive: -23.9%.

With `COc1ccc(OC)c(CCNC(=O)C(C)n2nc(C)c3c(C)n(-c4ccccc4)nc3c2=O)c1` (centres undefined) as the compound, how does the Potency read?
The Potency was inconclusive: 15.8 µM [inhibitor, single point].

For `Cc1ccc(CCN2CC(C(=O)NCCCN3CCOCC3)CC2=O)cc1` (centres undefined), which “activity change, negative = inhibition” value is on record?
Its value is inactive: 9.05%.

With `CC(C)(C)C(=O)NC(=S)NNC(=O)c1ccncc1` as the compound, how does the Potency read?
Its Potency is inconclusive: 6.31 µM [inhibitor, single point].

With `CN1CCC(N(C)C(=O)c2cccc(S(=O)(=O)N3CCOCC3)c2)CC1` as the compound, how does the Potency read?
The Potency was inconclusive: 0.1 µM [activator, full curve, poor fit].

For `Cc1ccc(S(=O)(=O)NCCN=C(CN2CCCC2)NS(=O)(=O)c2ccc(C)cc2)cc1`, which Potency is on record?
The Potency was inconclusive: 11.6 µM [inhibitor, partial curve].

With `O=C(CSc1nnc(-c2ccccc2)o1)N1CCCC1` as the compound, how does the “activity change, negative = inhibition” value read?
The value was inactive: 27.4% [at 46.1 µM].

With `Cn1cccc1CC(=O)N/N=C/c1ccco1` as the compound, how does the “activity change, negative = inhibition” value read?
Its value is inactive: 2.65% [at 46.1 µM].

Which “activity change, negative = inhibition” value does the source give for `CCOC(=O)COn1c(=O)c(-c2cccs2)[n+]([O-])c2ccccc21` here?
Its value is inactive: 18.8%.

For `COc1cccc(C(=O)Nc2c3c(nn2-c2cccc(C)c2C)CS(=O)(=O)C3)c1OC`, which Potency is on record?
The Potency was active: 18.3 µM.

Which Potency does the source give for `COc1ccc(-c2nc3ncccc3o2)cc1NC(=O)c1ccco1` here?
Its Potency is inconclusive: 8.91 µM [inhibitor, partial curve, poor fit].

With `NC(=N\N=CCc1ccccc1)/C(N)=N/N=CCc1ccccc1` as the compound, how does the Potency read?
Its Potency is inconclusive: 7.08 µM [activator, partial curve, poor fit].

For `CSc1ccccc1C(=O)NCCSc1ccccc1`, which Potency is on record?
The Potency was inconclusive: 1.3 µM [activator, partial curve].

With `CCc1ccc(NC(=S)N(CCN2CCCCC2)Cc2ccco2)cc1` as the compound, how does the Potency read?
The Potency was inconclusive: 14.1 µM [inhibitor, partial curve, poor fit].

Which Potency does the source give for `Nc1ccc(C(=O)C(=O)c2ccccc2)cc1` here?
Its Potency is inconclusive: 35.5 µM [activator, partial curve, poor fit].

Which Potency does the source give for `O=C(Nc1nc2ccc(Oc3ccccc3)cc2s1)c1cc([N+](=O)[O-])ccc1N1CCOCC1` here?
The Potency was inconclusive: 10 µM [inhibitor, partial curve, poor fit].

For `Cc1ccc(N2C(=O)CC(Cc3cc(C)cc(C)c3)C2=O)cc1` (centres undefined), which “activity change, negative = inhibition” value is on record?
Its value is inactive: 4.97% [at 46.1 µM].

With `O=C(N1CCOCC1)N(CCN1CCOCC1)Cc1cccc(Cl)c1` as the compound, how does the Potency read?
Its Potency is inconclusive: 0.794 µM [activator, full curve].

With `CCOC(=O)c1ccc(NC(=S)NCCCN2CCN(C3CCCCC3)CC2)cc1` as the compound, how does the Potency read?
The Potency was inconclusive: 12.6 µM [inhibitor, partial curve, poor fit].

With `C/C=C/C(=O)OCC(=O)Nc1cc([N+](=O)[O-])ccc1Cl` as the compound, how does the “activity change, negative = inhibition” value read?
Its value is inactive: -3.75%.

With `COc1ccc(-c2n[nH]c(C)c2-c2ccccc2OC)c(O)c1` as the compound, how does the Potency read?
The Potency was inconclusive: 12.6 µM [inhibitor, single point].

With `COC(=O)c1sc(NC(=O)c2cc(-c3ccccc3)nc3ccccc23)c(C#N)c1C` as the compound, how does the Potency read?
Its Potency is inconclusive: 3.16 µM [inhibitor, partial curve, poor fit].

For `Cc1[nH]c2ccc(C(=O)N3CCCCC3)cc2c1C`, which Potency is on record?
Its Potency is inconclusive: 1.26 µM [activator, full curve, poor fit].

For `Cc1cc(N2C(=O)C3C4CC(c5ccccc5)C(C4)C3C2=O)no1` (centres undefined), which Potency is on record?
Its Potency is inconclusive: 35.5 µM [inhibitor, single point].

Which Potency does the source give for `CC1(C2CC2)NC(=O)N(CC(=O)N2CCN(S(=O)(=O)c3ccc(F)c(F)c3)CC2)C1=O` (centres undefined) here?
Its Potency is inconclusive: 0.316 µM [inhibitor, full curve, poor fit].

For `CN(Cc1ccc(F)cc1)C(=O)COc1ccccc1-c1ccccc1`, which Potency is on record?
The Potency was inconclusive: 1.58 µM [activator, partial curve, poor fit].

With `Cc1cc(NC(=O)c2cccc(S(=O)(=O)N(C)C)c2)n(-c2ccccn2)n1` as the compound, how does the Potency read?
The Potency was inconclusive: 20.6 µM [inhibitor, single point].

For `COCCOc1ccc(C(F)(F)F)cc1NC(=O)c1ccc(F)cc1`, which Potency is on record?
Its Potency is inconclusive: 1.41 µM [inhibitor, partial curve, poor fit].

Which “activity change, negative = inhibition” value does the source give for `O=C(NCc1ccccc1)C1CCN(S(=O)(=O)c2cc([N+](=O)[O-])ccc2Cl)CC1` here?
Its value is inactive: 10%.

Which “activity change, negative = inhibition” value does the source give for `COc1ccc(NC(=O)c2cc(-c3ccc(OC)c(OC)c3)on2)cc1OC` here?
Its value is inactive: -1.65%.

With `CN1CCN(S(=O)(=O)c2ccc(N3CCc4ccccc4C3)nc2)CC1` as the compound, how does the Potency read?
The Potency was inconclusive: 5.01 µM [activator, full curve].

Which “activity change, negative = inhibition” value does the source give for `O=C(Nn1cnc2ccccc2c1=O)c1cccc(Cl)c1` here?
The value was inactive: 1.64% [at 46.1 µM].

Which “activity change, negative = inhibition” value does the source give for `CCOc1ccc(NC(=O)C2CCN(c3nnc(-n4c(C)ccc4C)s3)CC2)cc1` here?
Its value is inactive: -1.67% [at 46.1 µM].

For `Nc1ccccc1C=C1Cc2ccccc2C1=O`, which Potency is on record?
The Potency was active: 7.94 µM.

For `CCOC(=O)c1sc2nc(N3CCOCC3)c3c(c2c1N)CCC3`, which “activity change, negative = inhibition” value is on record?
The value was inactive: -8.51%.

For `CCCC(=O)Nc1ccc(-c2nc3ncccc3o2)cc1C`, which Potency is on record?
Its Potency is inconclusive: 12.6 µM [activator, partial curve, poor fit].

With `Fc1ccc(-c2csc3ncnc(Nc4ccc(N5CCOCC5)cc4)c23)cc1` as the compound, how does the Potency read?
Its Potency is inconclusive: 18.3 µM [inhibitor, single point].

For `CC(C)c1ccc(CNc2ccc(N3CCOCC3)cc2)cc1`, which “activity change, negative = inhibition” value is on record?
The value was inactive: 2.39%.

With `COc1ccc(C(=O)NCCCc2ccccc2)cc1` as the compound, how does the Potency read?
Its Potency is inconclusive: 2.24 µM [activator, partial curve, poor fit].

Which Potency does the source give for `Cn1c(-c2ccc(F)cc2)cnc1NCc1ccccc1` here?
Its Potency is active: 23.1 µM.

For `Cc1cccc(C(=O)NCCC(=O)Nc2nc(C)c(Cc3ccc4c(c3)OCO4)s2)c1`, which Potency is on record?
The Potency was inconclusive: 5.62 µM [inhibitor, single point].

With `CCc1ccccc1Nc1cc(C(=O)NC(C)c2ccccc2)c2ccccc2n1` (centres undefined) as the compound, how does the Potency read?
Its Potency is inconclusive: 0.501 µM [inhibitor, full curve, poor fit].
